Reference: the supplement of paper PMC12593923
Structures can show the parent of a compound that is named as a salt. Some well-known active drugs show little effect in this data set, so a weak value is uncertain.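 All three lines are high-grade serous ovarian cancer cells differing in chemosensitivity, with OVCAR3 described as the chemosensitive one. Toxicity was scaled between DMSO vehicle wells and fully lysed wells, the score derives from a fitted multi-dose response curve, and the authors counted a score above 5 as drug sensitivity.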

Experiments:
Assay in all cases: drug sensitivity score (DSS2, cytotoxicity, CellTox Green); higher = more cytotoxic / more sensitive; extreme values may be limits of the assay
Conditions in all cases: 72 h; doses 0.5, 1, 5 µM
OVCAR3 = system: OVCAR3
Kuramochi = system: Kuramochi
OVCAR4 = system: OVCAR4

| SMILES | drug sensitivity score (OVCAR3) | drug sensitivity score (Kuramochi) | drug sensitivity score (OVCAR4) |
| --- | --- | --- | --- |
| COc1ccc2[nH]c3c(-c4cccc5ccccc45)nccc3c2c1 [SP-141] | 8.6 DSS | 2 DSS | 0.7 DSS |
| COc1ccnc(C[S+]([O-])c2nc3cc(OC(F)F)ccc3[nH]2)c1OC (stereo not given) [Pantoprazole (sodium hydrate)] | 0 DSS | 0 DSS | 0 DSS |
| O=C1c2c(O)ccc(O)c2C(=O)c2c(NCCNCCO)ccc(NCCNCCO)c21 [Mitoxantrone (dihydrochloride)] | 0 DSS | 0 DSS | 0 DSS |
| CCOC(=O)[C@H](Cc1ccc(F)cc1)NC(=O)[C@@H](N)Cc1ccc(N(CCCl)CCCl)cc1 [Melflufen (hydrochloride)] | 1.7 DSS | 0.5 DSS | 1.4 DSS |
| COc1cccc2c1C(=O)c1c(O)c3c(c(O)c1C2=O)C[C@@](O)(C(=O)CO)C[C@@H]3O[C@H]1C[C@H](N)[C@@H](O)[C@H](C)O1 [Epirubicin (hydrochloride)] | 0 DSS | 0 DSS | 0 DSS |
| COc1ccc2cc([C@H](C)C(=O)O)ccc2c1 [Naproxen] | 0 DSS | 0 DSS | 0 DSS |
| N[C@@H](CCC(=O)O)C(=O)O [L-Glutamic acid] | 0 DSS | 0 DSS | 0 DSS |
| N[C@@H](CC(=O)N1CCn2c(nnc2C(F)(F)F)C1)Cc1cc(F)c(F)cc1F [Sitagliptin] | 0 DSS | 0 DSS | 0 DSS |
| C[C@H](N[C@@H](CCc1ccccc1)C(=O)O)C(=O)N1CCC[C@H]1C(=O)O [Enalaprilat (dihydrate)] | 0 DSS | 0 DSS | 0 DSS |
| Cc1ccc(C(=O)Nc2ccc(S(=O)(=O)O)c3cc(S(=O)(=O)O)cc(S(=O)(=O)O)c23)cc1NC(=O)c1cccc(NC(=O)Nc2cccc(C(=O)Nc3cc(C(=O)Nc4ccc(S(=O)(=O)O)c5cc(S(=O)(=O)O)cc(S(=O)(=O)O)c45)ccc3C)c2)c1 [Suramin (sodium salt)] | 0 DSS | 0 DSS | 0 DSS |
| CCN(CC)CCCC(C)Nc1ccnc2cc(Cl)ccc12 (stereo not given) [Chloroquine] | 0 DSS | – | 0 DSS |
| CCCCC(=O)N(Cc1ccc(-c2ccccc2-c2nn[nH]n2)cc1)[C@H](C(=O)O)C(C)C.CCOC(=O)[C@H](C)C[C@@H](Cc1ccc(-c2ccccc2)cc1)NC(=O)CCC(=O)O [Sacubitril/Valsartan] | 0 DSS | – | 0 DSS |
| Cc1ccc(NC(=O)c2ccc(CN3CCN(C)CC3)cc2)cc1Nc1nccc(-c2cccnc2)n1 [Imatinib (Mesylate)] | 0 DSS | – | 0 DSS |
| Nc1ccn([C@@H]2O[C@H](CO)[C@@H](O)[C@@H]2O)c(=O)n1 [Cytarabine (hydrochloride)] | 0 DSS | – | 0 DSS |
| Cc1ccc(NC(=O)c2ccc(CN3CCN(C)CC3)cc2)cc1Nc1nccc(-c2cccnc2)n1 [Imatinib] | 0 DSS | – | 0 DSS |
| Nc1ccn([C@@H]2O[C@H](CO)[C@@H](O)[C@@H]2O)c(=O)n1 [Cytarabine] | 0 DSS | – | 0 DSS |
| CN(C)CCCC1(c2ccc(F)cc2)OCc2cc(C#N)ccc21 (stereo not given) [Citalopram (hydrobromide)] | 0 DSS | – | 0 DSS |
| N#C[C@@H]1CCCN1C(=O)CNC12CC3CC(CC(O)(C3)C1)C2 [Vildagliptin] | 0 DSS | – | 0 DSS |
| CCOC(=O)[C@H](CCc1ccccc1)N[C@@H](C)C(=O)N1[C@H](C(=O)O)C[C@@H]2CCC[C@@H]21 [Ramipril] | 0 DSS | – | 0 DSS |
| CCN(CC)CCCC(C)Nc1ccnc2cc(Cl)ccc12 (stereo not given) [Chloroquine (phosphate)] | 0 DSS | – | 0 DSS |

In another format: entries from further up
O=C1c2c(O)ccc(O)c2C(=O)c2c(NCCNCCO)ccc(NCCNCCO)c21 [Mitoxantrone (dihydrochloride)]
  drug sensitivity score (OVCAR3): 0 DSS
  drug sensitivity score (Kuramochi): 0 DSS
  drug sensitivity score (OVCAR4): 0 DSS
Cc1ccc(C(=O)Nc2ccc(S(=O)(=O)O)c3cc(S(=O)(=O)O)cc(S(=O)(=O)O)c23)cc1NC(=O)c1cccc(NC(=O)Nc2cccc(C(=O)Nc3cc(C(=O)Nc4ccc(S(=O)(=O)O)c5cc(S(=O)(=O)O)cc(S(=O)(=O)O)c45)ccc3C)c2)c1 [Suramin (sodium salt)]
  drug sensitivity score (OVCAR3): 0 DSS
  drug sensitivity score (Kuramochi): 0 DSS
  drug sensitivity score (OVCAR4): 0 DSS
